Results: article PMC7762460
No constants are given. Whether binding was seen depends on the method and setting. In cells and extracts the contact can be indirect. Some entries that bind do so weakly or less than the wild type.

The chains behind the UniProt entries cited, without tags or fusion partners.
UniProt Q13485: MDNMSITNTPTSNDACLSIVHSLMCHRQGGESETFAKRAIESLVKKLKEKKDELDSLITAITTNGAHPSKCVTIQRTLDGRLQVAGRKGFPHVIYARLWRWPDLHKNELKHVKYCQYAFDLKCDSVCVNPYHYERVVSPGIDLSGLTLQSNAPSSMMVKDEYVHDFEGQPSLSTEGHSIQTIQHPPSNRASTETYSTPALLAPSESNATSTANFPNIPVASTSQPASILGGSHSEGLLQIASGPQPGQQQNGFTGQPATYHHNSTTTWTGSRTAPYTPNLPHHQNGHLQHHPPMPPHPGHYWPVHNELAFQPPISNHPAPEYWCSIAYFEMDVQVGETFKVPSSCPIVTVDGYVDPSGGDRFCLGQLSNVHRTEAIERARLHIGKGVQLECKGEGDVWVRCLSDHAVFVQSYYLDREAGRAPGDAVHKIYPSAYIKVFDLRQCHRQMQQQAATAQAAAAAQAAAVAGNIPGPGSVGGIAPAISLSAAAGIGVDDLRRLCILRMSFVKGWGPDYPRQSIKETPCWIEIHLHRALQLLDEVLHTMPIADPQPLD
UniProt O43294: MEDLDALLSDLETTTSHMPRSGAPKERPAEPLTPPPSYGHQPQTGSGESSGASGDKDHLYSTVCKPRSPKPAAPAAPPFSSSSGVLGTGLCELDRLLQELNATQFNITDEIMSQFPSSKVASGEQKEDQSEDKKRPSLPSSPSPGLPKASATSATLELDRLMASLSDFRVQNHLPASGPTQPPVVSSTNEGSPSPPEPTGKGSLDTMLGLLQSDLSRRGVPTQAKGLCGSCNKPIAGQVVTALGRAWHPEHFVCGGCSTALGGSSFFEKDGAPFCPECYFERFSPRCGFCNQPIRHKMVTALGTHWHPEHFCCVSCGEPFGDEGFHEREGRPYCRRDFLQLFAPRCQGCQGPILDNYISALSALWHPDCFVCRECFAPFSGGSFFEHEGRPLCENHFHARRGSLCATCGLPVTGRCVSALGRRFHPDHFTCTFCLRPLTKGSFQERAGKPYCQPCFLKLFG

Target: smad4 (UniProt Q13485)
Assay: co-IP; whole cell extract (400 mM KCl, 10 mM Na2HPO4, 1 mM EDTA, 1 mM DTT, 10% glycerol, 0.5% NP-40); appropriate antibodies and protein G Sepharose beads overnight at 4 °C; Western blot; which protein was precipitated not given

Hic-5 (hydrogen peroxide inducible clone 5) (from UniProt O43294 1-461)
binding: binds
